Test results published in PubChem BioAssay AID977622 (Broad Institute, 2014).
The list shows a part of the results. The main result of the screen is listed elsewhere. These columns were measured beside it and carry no call.

Tests used:
[1] = growth inhibition of wild-type GFP E. coli, dose response, h38 mutant RFP, cherry-pick (AID 977622); settings: E. coli mixed culture, 24 h, total growth OD600 at 50 uM
[2] = system: E. coli h38 humanized mutant ribosome RFP fluorescence, mixed culture, 24 h; test: as above; settings: h38 mutant RFP at 50 uM

| Structure (SMILES) | activity change [1] [%] | activity change [2] [%] |
| --- | --- | --- |
| CNC[C@H]1OCCCC[C@@H](C)Oc2ccc(NC(=O)Nc3cccc4ccccc34)cc2C(=O)N([C@@H](C)CO)C[C@H]1C | 7.83 | 22.3 |
| COc1ccc(-n2cc(-c3ccccc3)c3c(N4CCOCC4)ncnc32)cc1 | -69.8 | -6.11 |
| CC(=O)Nc1cccc2c1Cc1cc([N+](=O)[O-])ccc1-2 | -24.6 | -13.8 |
| CCN(c1ccccc1)S(=O)(=O)c1ccc(Cl)c(C(=O)NCc2ccco2)c1 | -66.4 |  |
| O=C1N2c3ccccc3CCc3cccc(c32)C1(O)C(F)(F)F (centres undefined) | -64.6 | -23.9 |
| CCOC(=O)c1sc(Nc2cccc(Cl)c2)nc1C | -22.9 | -32.1 |
| O=C(NC1CCCCC1)C(c1cccc2ccccc12)n1c(=O)c(-c2ccco2)nc2ccccc21 (centres undefined) | -3.58 | 15 |
| C=CCn1c(-c2cc3cccc(OC)c3o2)n[nH]c1=S | -25.3 |  |
| O=C(CC(=O)c1cccs1)c1ccncc1 | -24.7 | -17.7 |
| COc1cc(C(N)=O)cc(Br)c1OCc1ccccc1 | -54.4 | 3.25 |
| CCC(=O)N(CCC(c1ccco1)C(C)C)Cc1ccccc1 (centres undefined) | -45.3 | 22.8 |
| Cc1cc(NC(=O)CN2CCN(c3cccc(Cl)c3)CC2)no1 | -10.9 |  |
| Cc1noc(C)c1NC(=O)N(C)C[C@H]1OCCCC[C@@H](C)Oc2ccc(NC(=O)Nc3cccc4ccccc34)cc2C(=O)N([C@@H](C)CO)C[C@H]1C | -12.2 | -8.28 |
| O=C(CCS(=O)(=O)c1ccccc1)Nc1ncc([N+](=O)[O-])s1 | -45.2 | -55.8 |
| CN(C)C(=O)c1cccc(-c2ccc(C3[C@H]4CNC[C@@H]3N4S(=O)(=O)c3ccccc3F)cc2)c1 (some centres undefined) | 1.46 | 21 |
| CC(CCC(=O)O)C1CC[C@@]2(C)C3C(=O)CC4C(C)(C)C(O)CC[C@]4(C)C3C(=O)C[C@]12C (some centres undefined) | -22.8 |  |
| COc1ccc(OC)c(NC(=O)COC(=O)c2c3c(nc4ccccc24)CCCC3)c1 | -58.8 | -28.6 |
| O=C(O)CNC(=O)C(c1ccccc1)c1ccccc1 | 0.857 | 40.6 |
| COc1ccc(-c2csc(NC(=O)CC(NC(C)=O)c3ccccc3)n2)cc1OC (centres undefined) | -51.6 | -16.1 |
| Cc1cccc(CSCC(=O)N2CCN(S(=O)(=O)c3ccccc3C#N)CC2)c1 | -38.9 | 0.057 |
| COc1ccc(NC(=O)c2cccs2)cc1C(=O)N1CCN(c2ccccc2)CC1 | -31.1 | -25.7 |
| Oc1ccccc1Oc1ncc(Br)c(Cl)n1 | -67.5 | -9.48 |
| CC(=O)Nc1ccc(S(=O)(=O)Nc2cccc(-c3nc4cc(C)ccc4o3)c2)cc1 | -49.4 | -19.9 |
| CSc1ccccc1NC(=O)CN(c1cccc(C)c1)S(C)(=O)=O | -10.3 | 14.7 |

A draw from above in order of heavy-atom count, rising:

| Structure (SMILES) | activity change [1] [%] | activity change [2] [%] |
| --- | --- | --- |
| COc1ccc(-c2csc(NC(=O)CC(NC(C)=O)c3ccccc3)n2)cc1OC (centres undefined) | -51.6 | -16.1 |
| CC(CCC(=O)O)C1CC[C@@]2(C)C3C(=O)CC4C(C)(C)C(O)CC[C@]4(C)C3C(=O)C[C@]12C (some centres undefined) | -22.8 |  |
| CN(C)C(=O)c1cccc(-c2ccc(C3[C@H]4CNC[C@@H]3N4S(=O)(=O)c3ccccc3F)cc2)c1 (some centres undefined) | 1.46 | 21 |
